According to article PMC5819950, “3.3-Å resolution cryo-EM structure of human ribonucleotide reductase with substrate and allosteric regulators bound” (eLife, 2018):
These are yes or no findings as the source states them, for the method shown. Some entries that bind do so weakly or less than the wild type.

Key:
[1] = target: T1, human ribonucleotide reductase large subunit (alpha) (human) (UniProt P23921); experiment: cryo-EM structure; 15 μM α and 16.5 μM β with 100 μM dGTP and a 5-fold molar excess of ClFTP over α, 37°C, diluted 75-fold into 50 mM HEPES pH 7.6, 15 mM Mg2SO4, 150 mM NaCl, 0.5 mM ATP; ISAC averages and low-resolution 3D reconstruction; both purified
T1 sequence: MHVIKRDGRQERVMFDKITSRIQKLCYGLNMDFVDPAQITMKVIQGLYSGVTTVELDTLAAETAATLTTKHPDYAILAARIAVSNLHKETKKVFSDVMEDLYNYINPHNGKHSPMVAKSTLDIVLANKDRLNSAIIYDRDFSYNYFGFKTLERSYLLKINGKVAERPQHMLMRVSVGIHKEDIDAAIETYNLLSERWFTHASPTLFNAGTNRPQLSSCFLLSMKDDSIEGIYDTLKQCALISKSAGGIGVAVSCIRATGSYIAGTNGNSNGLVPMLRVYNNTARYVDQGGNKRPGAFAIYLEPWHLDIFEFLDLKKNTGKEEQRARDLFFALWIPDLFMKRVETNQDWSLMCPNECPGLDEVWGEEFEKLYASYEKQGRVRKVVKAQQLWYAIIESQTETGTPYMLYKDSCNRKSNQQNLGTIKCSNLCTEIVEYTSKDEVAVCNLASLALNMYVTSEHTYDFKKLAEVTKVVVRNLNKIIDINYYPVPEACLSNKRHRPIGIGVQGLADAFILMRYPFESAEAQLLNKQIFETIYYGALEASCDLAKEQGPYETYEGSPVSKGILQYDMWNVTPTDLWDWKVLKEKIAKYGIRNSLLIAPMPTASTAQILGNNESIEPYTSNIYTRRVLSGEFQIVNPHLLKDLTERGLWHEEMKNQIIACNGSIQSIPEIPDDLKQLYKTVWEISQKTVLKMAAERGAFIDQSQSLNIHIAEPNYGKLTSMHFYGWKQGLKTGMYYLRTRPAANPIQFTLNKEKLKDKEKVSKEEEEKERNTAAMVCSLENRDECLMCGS

[2] = target: T1, human ribonucleotide reductase large subunit (alpha) (human); experiment: negative stain EM; 3 μM α and 3 μM β with 3 mM ATP, 0.05 mM dATP, 1 mM CDP in 50 mM HEPES pH 7.6, 15 mM MgCl2, 50 mM KCl, 5 mM DTT, 37°C for 2 min, diluted ~20 fold; ISAC averages; both purified

B1: human ribonucleotide reductase β subunit (enzyme)
chain: TKAAAPGVEDEPLLRENPRRFVIFPIEYHDIWQMYKKAEASFWTAEEVDLSKDIQHWESLKPEERYFISHVLAFFAASDGIVNENLVERFSQEVQITEARCFYGFQIAMENIHSEMYSLLIDTYIKDPKEREFLFNAIETMPCVKKKADWALRWIGDKEATYGERVVAFAAVEGIFFSGSFASIFWLKKRGLMPGLTFSNELISRDEGLHCDFACLMFKHLVHKPSEERVREIIINAVRIEQEFLTEALPVKLIGMNCTLMKQYIEFVADRLMLELGFSKVFRVENPFDFMENISLEGKTNFFEKRVGEYQRMGVMSSPTENSFTLDADF
notes: human ribonucleotide reductase β (small) subunit, homodimer β2 with the diferric-tyrosyl radical cofactor; also called β2; human β
Q: What does the source list for B1?
A: binding [1]: binds weakly; binding [2]: binds weakly
